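Compounds were printed on reactive glass slides in duplicate spots, a dye-labelled oligonucleotide was laid over them, and the fluorescence left after washing was read. For the PreQ1, TPP and SAM-II riboswitches the laboratory earlier reported (doi:10.1038/s41467-019-09493-3) 1 µM RNA, 2 h, and a rule that included a mean Z-score above 3 (spot signal-to-noise against the whole library), a score well above that on a control array, and duplicate spots agreeing (coefficient of variation under 100). The data file gives only the calls; its cut-offs may differ, and compounds hitting several targets are kept. The calls come from the array alone, and fixing a compound to the slide can hide its binding.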
“Y” means called a hit, “N” means screened and not called a hit.
Compounds were drawn at random from those tested, without regard to their results.
A dash means that no call is listed here.

Targets, with sequences 5′ to 3′:
T1: TPP riboswitch RNA three-way junction, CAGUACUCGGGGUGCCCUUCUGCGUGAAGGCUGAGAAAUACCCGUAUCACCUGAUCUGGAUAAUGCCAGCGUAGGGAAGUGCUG. About 160 hits among about 24,000 compounds.
T2: PreQ1 riboswitch RNA pseudoknot, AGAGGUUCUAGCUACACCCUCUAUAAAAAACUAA. From B. subtilis. About 170 hits among about 24,000 compounds.
T3: SAM-II riboswitch RNA pseudoknot, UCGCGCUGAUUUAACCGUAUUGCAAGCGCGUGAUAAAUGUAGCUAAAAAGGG. About 200 hits among about 21,000 compounds.

compound	T1	T2	T3
N#CC1=C(N)Oc2[nH]c(=O)[nH]c(=O)c2C1c1ccccc1F (configuration not stated)	N	N	N
Nc1cc(S(N)(=O)=O)ccc1Cl	N	N	N
Cc1cc(C)n(CC(O)COc2c(C)cccc2C)n1 (configuration not stated)	N	N	N
Cc1cc(C(F)(F)F)nc(CNC2CCOC3(CCOCC3)C2)n1 (configuration not stated)	N	N	N
O=c1c(Nc2ccc(-c3ccno3)cc2)c(-c2ccc(Cl)cc2)c1=O	N	N	-
CC(=O)N1CCN(c2ccc(NCc3ccc(OCc4cccs4)cc3)cc2)CC1	N	N	N
Fc1ccc(-c2ccc(CNCC3CCCO3)o2)cc1 (configuration not stated)	N	N	-
O=C1C=C(NCCc2ccccc2)C2(CCCCC2)O1	N	N	N
Cc1nc(C)c(CC(=O)N[C@H]2CN(CCCO)C[C@@H]2C(C)C)c(=O)[nH]1	N	N	N
NCCCC(=O)N1c2ccccc2Sc2ccccc21	N	N	N
Cc1nc(-c2cc3cccc(C)c3nc2NCc2ccc(F)c(Cl)c2)no1	N	N	-
CC(=O)CC(C)(C)Nc1ccccc1.Cl	N	N	N
Cn1cnc([N+](=O)[O-])c1Sc1nc(N)n[nH]1	N	N	N
COc1cccc(NCc2nnc(-c3ccccc3)o2)c1	N	N	-
CC1(C)CC(CCNCc2ccc3c(c2)OCO3)(Cc2ccccc2)CCO1 (configuration not stated)	N	N	N
COc1ccc(Cl)cc1Nc1c(-c2ccccc2)c(=O)c1=O	N	N	-
Nc1nonc1C(=O)N1CCN(C(=O)Nc2ccc(F)c(Cl)c2)CC1	N	N	-
COc1ccccc1OCc1nc(C#N)c(NCc2ccc(C)cc2)o1	N	N	N
Cc1ccccc1Nc1c(-c2cccnc2)nc2ccc(Cl)cn12	N	N	N
OCc1nc2cc(Cc3ccc4[nH]c(CO)nc4c3)ccc2[nH]1	N	N	N
Cc1sc2nc(CCN)nc(N3C[C@H]4CC[C@H]3C4)c2c1C	N	N	N
N#CC1=C(N)Oc2[nH]nc(-c3ccncc3)c2C1c1ccncc1 (configuration not stated)	N	N	N
Nc1nnc(C(NC(=O)c2cn3ccsc3n2)c2ccccc2)s1 (configuration not stated)	N	N	N
O=C(CN1CCN(CCO)CC1)N1c2ccccc2Sc2ccc(C(F)(F)F)cc21	N	N	N
CC1=C(c2ccccc2)S(=O)(=O)N=C1Nc1c(C)cc(C)cc1C	N	N	-
Cc1cc(C(F)(F)F)n(-c2ccc(N)cc2)n1	N	N	N
O=c1[nH]c2ccccc2n1C1=CCNCC1	N	N	N
N[C@H]1CC[C@@H](n2cc(C(=O)NCc3nc(-c4ccccn4)no3)nn2)CC1	N	N	N
CCCCOc1cccc(C2c3c(-c4ccccc4O)n[nH]c3C(=O)N2CCO)c1 (configuration not stated)	N	N	-
Cc1ccccc1OCC(O)Cn1c(C2CC(=O)N(c3ccccc3)C2)nc2ccccc21 (configuration not stated)	N	N	-
Cc1nnc(SCCCNC(=O)C(N)c2c(C)n[nH]c2C)s1 (configuration not stated)	N	N	N
CC(C)OC(=O)C1=CN(C(=O)c2ccc(F)c(F)c2)CC(C)(C)c2c1[nH]c1ccccc21	N	N	N
CCOC(=O)c1c(N)n(-c2cccc(Cl)c2)c2nc3ccccc3nc12	N	N	N
CC(C)=CCN1CCN(c2nc3ccccc3s2)CC1CCO (configuration not stated)	N	N	N
COc1ccc2c(c1)OC[C@]1(C(=O)O)CN(c3cc(C)nc(N)n3)C[C@H]21	N	N	N
O=C1c2cccnc2C(Nc2ccc(F)c(Cl)c2)N1Cc1cccs1 (configuration not stated)	N	N	N
OCCOCCN1CCCC1c1nc2cc(F)ccc2[nH]1 (configuration not stated)	N	N	N
C=CCN1C(=O)C2(C(C(=O)OC)=C(N)OC3=C2C(=O)CC(C)(C)C3)c2ccccc21 (configuration not stated)	N	N	N
CSc1nc(N)cc(N2CCCn3nc(CNC(=O)N(C)C)cc3C2)n1	N	N	N
O=C(OCCCNC1=NS(=O)(=O)c2ccccc21)c1cccs1	N	N	N
Cn1c(=O)c(-c2c(Cl)cccc2Cl)cc2cnc(Nc3cccc(C(=O)O)c3)nc21	N	N	N
N#CC1=C(N)OC2=C(C1c1ccccc1Cl)S(=O)(=O)N(Cc1ccccc1)c1ccccc12 (configuration not stated)	N	N	-
Cc1nc(CO)no1	N	N	N
NC1=C(c2nc3ccccc3s2)C(=O)CN1C1CCCCCCC1	N	N	-
NCCn1cc(C(=O)N2CCCC(c3n[nH]c(=O)n3-c3ccccc3)C2)nn1 (configuration not stated)	N	N	N
CCc1ccc(CCN2C(=O)c3ccccc3C2=O)nc1	N	N	N
Cc1nc(CN2CCN(Cc3cc4n(n3)CCNC4)CC2)cs1	N	N	N
NCCc1cn2ccsc2n1	N	N	N
CCc1nc(C)c(C(=O)NCc2c(C)ncc3c2CCNC3)o1	N	N	N
FC(F)(F)c1nc(NCc2ccco2)nc2c1CCCCC2	N	N	N
N#CC1=C(N)OC2=C(C(=O)CCC2)C1c1ccc(-c2ccccc2)cc1 (configuration not stated)	N	N	N
O=c1cc[nH]c(Nc2ccc(Cl)cc2)n1	N	N	N
Cc1ccccc1Cn1c(C(=O)O)c(CNCc2cccnc2)c2ccccc21	N	N	-
CN(C)c1ccc(CNCCC2(Cc3ccccc3)CCOC(C)(C)C2)cc1 (configuration not stated)	N	N	N
CCN(C)C(=O)Cn1nc(C2CCCNC2)n(-c2ccccc2)c1=O (configuration not stated)	N	N	N
CN(C)CCN(C)CCc1ccc(Cl)c(Cl)c1	N	N	N

From ROBIN, a set of small-molecule microarray screens (doi:10.1002/anie.202211358).